From patent US10035806B2, “Derivatized corroles and metallocorroles and their use as imaging and therapeutic agents” (CALIFORNIA INSTITUTE OF TECHNOLOGY, priority 2015, dated 2018) come the findings set out here.

Series [1] has as its system SK-MEL-28. Briefly: Uptake of gallium corroles (ImageXpress confocal). Type of series: cell-based, human. The conditions noted are these: 30 μM; for enhancement of fluorescence in melanoma cells compared with the other three cell lines: after 24 h.
Series [2] relates to DU-145. Briefly: Uptake of gallium corroles (ImageXpress confocal). Type of series: cell-based, human. The conditions noted are these: prostate cancer cells (DU-145), 30 μM, within 15 min, 37° C., dark.

For the compound `O=S(=O)(O)C1=CC2=C(c3c(F)c(F)c(F)c(F)c3F)c3ccc4[n]3[Ga-]35[n]6c(cc(S(=O)(=O)O)c6C(c6c(F)c(F)c(F)c(F)c6F)=c6ccc([n]63)=C4c3c(F)c(F)c(F)c(F)c3F)C1=[N+]25` (stereo not drawn) [Complex 2], the “enhancement of fluorescence in melanoma cells compared with the other three cell lines” value in series [1] (median RFU) was “twofold”.
Still for that read-out and setting: for `Fc1c(F)c(F)c(C2=C3C=CC4=[N+]3[Ga-]35[n]6c2ccc6C(c2c(F)c(F)c(F)c(F)c2F)=c2ccc([n]23)=C(c2c(F)c(F)c(F)c(F)c2F)c2ccc4[n]25)c(F)c1F` (stereo not drawn) [Complex 1, gallium(III) tris(pentafluorophenyl)corrole] the value was “twofold”; for `O=C(O)CCCCCNc1c(F)c(F)c(C2=C3C=CC4=[N+]3[Ga-]35[n]6c2ccc6C(c2c(F)c(F)c(F)c(F)c2F)=c2ccc([n]23)=C(c2c(F)c(F)c(F)c(F)c2F)c2ccc4[n]25)c(F)c1F` (stereo not drawn) [Complex 3], “twofold”.
Turning to `O=C(O)C1=CC2=[N+]3C1=C(c1c(F)c(F)c(F)c(F)c1F)c1ccc4[n]1[Ga-]31[n]3c(ccc32)C(c2c(F)c(F)c(F)c(F)c2F)=c2ccc([n]21)=C4c1c(F)c(F)c(F)c(F)c1F` (stereo not drawn) [Complex 4], the “cells with observable corrole fluorescence” value is given as over 99% in series [2] and over 99% in series [1] (melanoma cells (SK-MEL-28), within 15 min, 37° C., dark). The “fluorescence in melanoma cells compared with prostate, breast, and ovarian cancer cells” value in series [1] (after 3 h of incubation, median RFU) is on record as “twofold to threefold higher”.
